Data: the supplement of paper PMC10849652
The list shows a part of the results.

Amino acid sequences for entries named in this document (tags omitted). A change or cut given only in a name is not applied to a line headed by its entry.
UniProt P61086: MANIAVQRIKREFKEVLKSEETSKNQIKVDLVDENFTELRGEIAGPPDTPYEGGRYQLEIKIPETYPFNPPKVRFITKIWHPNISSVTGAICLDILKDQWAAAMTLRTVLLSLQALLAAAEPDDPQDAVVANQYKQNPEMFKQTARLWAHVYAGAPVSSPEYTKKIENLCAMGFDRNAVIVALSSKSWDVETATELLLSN
UniProt Q15819: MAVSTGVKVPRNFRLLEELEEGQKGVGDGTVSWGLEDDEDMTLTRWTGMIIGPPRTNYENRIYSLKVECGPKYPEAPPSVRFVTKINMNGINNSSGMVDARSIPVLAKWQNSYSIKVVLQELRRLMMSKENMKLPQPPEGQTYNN
UniProt Q9NRR5, whole entry, looked up: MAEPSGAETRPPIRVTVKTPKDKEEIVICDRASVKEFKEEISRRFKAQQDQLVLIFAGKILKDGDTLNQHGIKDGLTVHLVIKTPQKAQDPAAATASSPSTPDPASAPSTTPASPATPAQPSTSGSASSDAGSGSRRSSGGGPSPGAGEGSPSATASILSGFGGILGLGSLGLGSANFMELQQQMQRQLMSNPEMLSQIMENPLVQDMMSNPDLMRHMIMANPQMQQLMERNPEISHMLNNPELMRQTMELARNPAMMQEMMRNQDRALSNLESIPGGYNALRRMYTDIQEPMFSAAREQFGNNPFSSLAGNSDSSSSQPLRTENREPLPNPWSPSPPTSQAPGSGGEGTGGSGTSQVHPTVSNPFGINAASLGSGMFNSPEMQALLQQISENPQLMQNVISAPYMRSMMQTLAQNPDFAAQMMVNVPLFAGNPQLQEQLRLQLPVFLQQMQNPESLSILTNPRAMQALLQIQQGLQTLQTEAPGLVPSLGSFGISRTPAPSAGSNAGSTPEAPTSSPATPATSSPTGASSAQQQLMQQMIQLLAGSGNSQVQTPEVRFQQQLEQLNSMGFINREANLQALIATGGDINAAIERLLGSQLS
UniProt O94888: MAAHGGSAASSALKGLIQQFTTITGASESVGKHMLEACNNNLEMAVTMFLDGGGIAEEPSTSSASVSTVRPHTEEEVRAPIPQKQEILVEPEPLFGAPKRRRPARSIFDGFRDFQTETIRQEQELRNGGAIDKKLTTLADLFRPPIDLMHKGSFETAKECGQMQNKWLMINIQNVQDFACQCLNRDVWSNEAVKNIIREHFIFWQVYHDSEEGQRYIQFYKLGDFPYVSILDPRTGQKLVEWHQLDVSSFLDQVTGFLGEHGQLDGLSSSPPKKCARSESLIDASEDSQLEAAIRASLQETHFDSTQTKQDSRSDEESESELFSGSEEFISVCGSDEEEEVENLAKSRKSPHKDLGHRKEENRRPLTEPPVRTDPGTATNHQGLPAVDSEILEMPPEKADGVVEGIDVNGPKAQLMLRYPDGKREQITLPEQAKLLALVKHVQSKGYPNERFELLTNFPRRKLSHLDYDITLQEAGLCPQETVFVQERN
UniProt P61077: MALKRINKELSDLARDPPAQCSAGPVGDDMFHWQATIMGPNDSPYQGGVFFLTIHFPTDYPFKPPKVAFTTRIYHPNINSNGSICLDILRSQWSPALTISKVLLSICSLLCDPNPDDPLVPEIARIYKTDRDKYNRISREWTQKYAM
UniProt O95155, whole entry, looked up: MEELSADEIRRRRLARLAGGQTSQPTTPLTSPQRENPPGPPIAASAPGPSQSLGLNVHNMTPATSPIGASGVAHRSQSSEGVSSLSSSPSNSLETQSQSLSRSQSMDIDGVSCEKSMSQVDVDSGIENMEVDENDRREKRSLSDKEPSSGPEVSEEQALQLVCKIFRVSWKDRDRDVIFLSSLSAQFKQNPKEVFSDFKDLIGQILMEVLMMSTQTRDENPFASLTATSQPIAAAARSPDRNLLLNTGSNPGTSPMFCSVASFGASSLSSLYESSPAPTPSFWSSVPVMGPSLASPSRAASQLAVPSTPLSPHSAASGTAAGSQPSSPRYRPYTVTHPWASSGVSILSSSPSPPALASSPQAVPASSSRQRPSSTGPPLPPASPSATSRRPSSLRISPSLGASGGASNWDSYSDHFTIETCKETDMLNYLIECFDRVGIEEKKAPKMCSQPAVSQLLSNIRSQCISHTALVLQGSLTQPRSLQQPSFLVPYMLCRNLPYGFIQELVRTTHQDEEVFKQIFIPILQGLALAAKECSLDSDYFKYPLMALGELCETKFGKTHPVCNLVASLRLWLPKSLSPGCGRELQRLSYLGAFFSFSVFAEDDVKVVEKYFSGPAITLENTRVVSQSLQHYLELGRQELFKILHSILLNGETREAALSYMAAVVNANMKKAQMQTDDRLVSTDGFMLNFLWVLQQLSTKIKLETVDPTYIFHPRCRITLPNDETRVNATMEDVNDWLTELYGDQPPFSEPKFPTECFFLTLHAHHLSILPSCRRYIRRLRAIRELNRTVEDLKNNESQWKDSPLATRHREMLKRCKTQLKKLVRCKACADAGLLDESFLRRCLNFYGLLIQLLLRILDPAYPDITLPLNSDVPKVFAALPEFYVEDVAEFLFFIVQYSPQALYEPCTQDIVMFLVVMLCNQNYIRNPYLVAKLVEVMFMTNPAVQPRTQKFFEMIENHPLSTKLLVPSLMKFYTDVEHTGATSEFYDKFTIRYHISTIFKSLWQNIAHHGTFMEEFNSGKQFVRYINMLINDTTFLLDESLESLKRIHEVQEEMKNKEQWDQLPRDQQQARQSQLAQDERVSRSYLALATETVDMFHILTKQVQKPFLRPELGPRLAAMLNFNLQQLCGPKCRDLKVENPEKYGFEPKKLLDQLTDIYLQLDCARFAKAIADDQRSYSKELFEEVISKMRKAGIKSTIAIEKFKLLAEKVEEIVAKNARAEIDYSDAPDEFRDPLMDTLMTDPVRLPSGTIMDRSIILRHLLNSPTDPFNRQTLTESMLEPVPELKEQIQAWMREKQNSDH
UniProt Q9H832: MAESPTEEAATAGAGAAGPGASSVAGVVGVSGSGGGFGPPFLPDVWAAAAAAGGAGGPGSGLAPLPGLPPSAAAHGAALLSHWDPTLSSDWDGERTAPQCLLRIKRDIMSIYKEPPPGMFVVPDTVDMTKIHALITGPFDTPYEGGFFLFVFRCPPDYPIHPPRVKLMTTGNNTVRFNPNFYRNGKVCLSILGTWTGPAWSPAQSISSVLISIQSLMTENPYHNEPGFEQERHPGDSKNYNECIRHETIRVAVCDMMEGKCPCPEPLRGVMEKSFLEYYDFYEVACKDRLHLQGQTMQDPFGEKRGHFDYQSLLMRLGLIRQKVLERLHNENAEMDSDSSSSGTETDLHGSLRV
UniProt Q8IWV7: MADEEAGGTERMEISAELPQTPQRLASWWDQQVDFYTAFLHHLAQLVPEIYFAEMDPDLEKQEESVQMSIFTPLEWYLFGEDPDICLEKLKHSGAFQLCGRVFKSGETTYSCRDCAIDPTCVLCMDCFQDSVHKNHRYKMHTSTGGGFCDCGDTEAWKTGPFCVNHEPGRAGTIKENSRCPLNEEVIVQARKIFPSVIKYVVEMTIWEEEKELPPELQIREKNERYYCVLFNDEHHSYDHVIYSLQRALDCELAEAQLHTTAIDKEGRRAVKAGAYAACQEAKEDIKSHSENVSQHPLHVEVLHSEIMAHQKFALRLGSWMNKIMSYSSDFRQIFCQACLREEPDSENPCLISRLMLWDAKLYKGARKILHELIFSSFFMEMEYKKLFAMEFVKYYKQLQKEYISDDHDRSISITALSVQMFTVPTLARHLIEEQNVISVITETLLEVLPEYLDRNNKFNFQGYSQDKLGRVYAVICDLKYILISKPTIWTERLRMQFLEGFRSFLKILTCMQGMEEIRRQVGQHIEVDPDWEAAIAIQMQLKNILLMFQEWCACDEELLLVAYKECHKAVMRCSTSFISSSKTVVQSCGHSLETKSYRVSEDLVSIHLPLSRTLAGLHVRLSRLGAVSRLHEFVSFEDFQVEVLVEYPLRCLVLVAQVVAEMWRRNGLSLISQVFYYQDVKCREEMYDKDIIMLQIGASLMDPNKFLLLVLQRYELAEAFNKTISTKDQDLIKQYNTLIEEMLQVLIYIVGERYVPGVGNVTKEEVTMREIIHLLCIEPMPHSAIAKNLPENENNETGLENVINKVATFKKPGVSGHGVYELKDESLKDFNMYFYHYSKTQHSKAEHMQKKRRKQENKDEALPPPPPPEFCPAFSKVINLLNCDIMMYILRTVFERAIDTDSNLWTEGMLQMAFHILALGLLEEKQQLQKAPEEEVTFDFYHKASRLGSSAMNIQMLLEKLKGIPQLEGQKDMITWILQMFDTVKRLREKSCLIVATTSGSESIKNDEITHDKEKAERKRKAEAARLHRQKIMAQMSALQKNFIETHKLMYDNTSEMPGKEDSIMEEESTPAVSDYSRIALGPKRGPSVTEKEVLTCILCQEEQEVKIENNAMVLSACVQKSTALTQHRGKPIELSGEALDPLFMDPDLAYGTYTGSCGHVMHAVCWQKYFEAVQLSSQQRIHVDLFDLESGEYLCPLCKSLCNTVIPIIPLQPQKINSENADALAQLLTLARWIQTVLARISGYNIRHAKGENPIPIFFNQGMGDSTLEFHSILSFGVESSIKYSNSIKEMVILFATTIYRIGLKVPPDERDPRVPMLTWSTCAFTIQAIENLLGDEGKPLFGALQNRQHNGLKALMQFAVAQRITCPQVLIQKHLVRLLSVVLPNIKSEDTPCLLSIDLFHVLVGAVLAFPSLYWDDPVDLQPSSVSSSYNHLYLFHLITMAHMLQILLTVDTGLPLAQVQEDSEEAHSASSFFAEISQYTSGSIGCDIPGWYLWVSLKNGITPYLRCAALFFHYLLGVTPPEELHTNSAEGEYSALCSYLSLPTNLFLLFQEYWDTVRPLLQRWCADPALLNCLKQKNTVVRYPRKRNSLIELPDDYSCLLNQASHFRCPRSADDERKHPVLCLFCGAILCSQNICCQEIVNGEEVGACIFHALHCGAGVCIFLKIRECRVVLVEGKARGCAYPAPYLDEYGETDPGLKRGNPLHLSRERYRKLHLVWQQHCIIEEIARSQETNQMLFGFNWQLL
UniProt Q9NX01: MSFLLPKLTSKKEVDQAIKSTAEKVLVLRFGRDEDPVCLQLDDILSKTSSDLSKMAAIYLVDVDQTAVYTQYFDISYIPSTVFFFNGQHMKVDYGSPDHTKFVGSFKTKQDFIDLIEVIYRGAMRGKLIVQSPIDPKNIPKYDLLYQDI
UniProt P63279, whole entry, looked up: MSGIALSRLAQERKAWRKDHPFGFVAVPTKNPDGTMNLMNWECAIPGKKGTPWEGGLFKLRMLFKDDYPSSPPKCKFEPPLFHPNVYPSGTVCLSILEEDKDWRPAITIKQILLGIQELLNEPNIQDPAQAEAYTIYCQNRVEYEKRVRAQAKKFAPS
UniProt Q9UJT1: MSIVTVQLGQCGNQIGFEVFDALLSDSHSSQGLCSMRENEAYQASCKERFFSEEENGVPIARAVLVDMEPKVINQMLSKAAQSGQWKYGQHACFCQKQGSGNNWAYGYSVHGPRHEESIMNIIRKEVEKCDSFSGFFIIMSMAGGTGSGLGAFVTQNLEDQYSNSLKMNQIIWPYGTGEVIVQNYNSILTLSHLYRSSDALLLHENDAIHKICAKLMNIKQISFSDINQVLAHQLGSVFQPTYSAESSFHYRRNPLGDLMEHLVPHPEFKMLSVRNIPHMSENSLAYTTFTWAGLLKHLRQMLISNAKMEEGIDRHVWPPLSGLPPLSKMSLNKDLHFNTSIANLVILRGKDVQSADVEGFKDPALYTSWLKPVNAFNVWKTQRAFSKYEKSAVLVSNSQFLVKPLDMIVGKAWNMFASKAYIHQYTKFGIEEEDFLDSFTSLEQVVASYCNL
UniProt Q96S82: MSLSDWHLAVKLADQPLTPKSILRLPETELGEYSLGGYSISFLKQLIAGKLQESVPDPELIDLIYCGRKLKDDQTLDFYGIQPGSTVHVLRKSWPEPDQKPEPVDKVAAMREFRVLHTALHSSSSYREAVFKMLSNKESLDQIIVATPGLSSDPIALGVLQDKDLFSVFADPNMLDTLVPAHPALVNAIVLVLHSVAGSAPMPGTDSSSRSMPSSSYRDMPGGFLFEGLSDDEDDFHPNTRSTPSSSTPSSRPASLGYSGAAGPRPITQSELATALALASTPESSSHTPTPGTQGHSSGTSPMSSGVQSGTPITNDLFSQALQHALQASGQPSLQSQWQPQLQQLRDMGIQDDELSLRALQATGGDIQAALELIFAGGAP
UniProt Q8NBS9: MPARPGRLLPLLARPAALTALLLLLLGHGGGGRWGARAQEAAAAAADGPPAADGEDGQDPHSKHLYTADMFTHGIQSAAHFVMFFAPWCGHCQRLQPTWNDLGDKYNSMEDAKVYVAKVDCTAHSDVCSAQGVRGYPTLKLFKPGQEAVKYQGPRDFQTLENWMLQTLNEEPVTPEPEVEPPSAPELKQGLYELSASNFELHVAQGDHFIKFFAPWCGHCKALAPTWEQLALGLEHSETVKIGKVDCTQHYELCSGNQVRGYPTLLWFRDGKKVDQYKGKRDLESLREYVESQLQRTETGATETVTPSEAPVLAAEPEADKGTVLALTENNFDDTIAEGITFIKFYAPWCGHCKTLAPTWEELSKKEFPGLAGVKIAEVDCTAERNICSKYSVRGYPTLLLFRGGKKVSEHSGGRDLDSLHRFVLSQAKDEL

Legend:
Assay in all cases: log2 fold change, soluble protein after heating vs DMSO (PISA); higher = thermal stabilisation; K562 lysate, 10 uM; active = over 0.2 and 3.5 SD of the protein, either way, in both replicates (recomputed)
alvocidib = compound: CN1CC[C@H](c2c(O)cc(O)c3c(=O)cc(-c4ccccc4Cl)oc23)[C@H](O)C1 [alvocidib]
Summary of the method: (§1)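 Thermal stability, expressed as log-two fold change relative to solvent controls, is given from duplicates. Crude K562 extract in PBS pH 7.4 with 1 mM MgCl2, at 1 mg/mL protein, was treated with 10 μM compound for 30 min and heated in aliquots for 3 min across 48°C-58°C. After pooling, adjustment to 0.5% NP-40 at 4°C and centrifugation at 21,000xg for 90 min, supernatant protein was measured by TMTpro 16plex LC-MS/MS with channel sums equalised.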

Tubastatin A = compound: CN1CCc2c(c3ccccc3n2Cc2ccc(C(=O)NO)cc2)C1 [Tubastatin A]
Summary of the method: as §1

[1] = compound: CNC(=O)C1=CC=CC=C1NC2=NC(=NC=C2Cl)NC3=C(C=C(C=C3)N4CCOCC4)OC
Summary of the method: as §1

defactinib = compound: CNC(=O)c1ccc(Nc2ncc(C(F)(F)F)c(NCc3nccnc3N(C)S(C)(=O)=O)n2)cc1 [defactinib]
Summary of the method: as §1

[2] = compound: CNc1nc(-c2ccc3c(N)n[nH]c3c2)cc(N2C[C@@H](C(=O)NC3CCCCC3)CC[C@H]2C)n1
Summary of the method: as §1

encorafenib = compound: COC(=O)N[C@@H](C)CNc1nccc(-c2cn(C(C)C)nc2-c2cc(Cl)cc(NS(C)(=O)=O)c2F)n1 [encorafenib]
Summary of the method: as §1

[3] = compound: COC(=O)[C@H](CCSC)NC(=O)C1=C(C=C(C=C1)NC[C@H](CS)N)C2=CC=CC=C2
Summary of the method: as §1

alisertib = compound: COc1cc(Nc2ncc3c(n2)-c2ccc(Cl)cc2C(c2c(F)cccc2OC)=NC3)ccc1C(=O)O [alisertib]
Summary of the method: as §1

[4] = compound: COc1cc2nc(-c3cc(F)ccc3O)nc(N[C@@H]3CNC[C@H]3C(C)(C)O)c2cc1OC
Summary of the method: as §1

gefitinib = compound: COc1cc2ncnc(Nc3ccc(F)c(Cl)c3)c2cc1OCCCN1CCOCC1 [gefitinib]
Summary of the method: as §1

lapatinib = compound: CS(=O)(=O)CCNCc1ccc(-c2ccc3ncnc(Nc4ccc(OCc5cccc(F)c5)c(Cl)c4)c3c2)o1 [lapatinib]
Summary of the method: as §1

pictilisib = compound: CS(=O)(=O)N1CCN(Cc2cc3nc(-c4cccc5[nH]ncc45)nc(N4CCOCC4)c3s2)CC1 [pictilisib]
Summary of the method: as §1

crizotinib = compound: C[C@@H](Oc1cc(-c2cnn(C3CCNCC3)c2)cnc1N)c1c(Cl)ccc(F)c1Cl [crizotinib]
Summary of the method: as §1

[5] = compound: C[C@H](C1=CC=C(C=C1)C(=O)NC2=C3C=CNC3=NC=C2)N
Summary of the method: as §1

duvelisib = compound: C[C@H](Nc1ncnc2nc[nH]c12)c1cc2cccc(Cl)c2c(=O)n1-c1ccccc1 [duvelisib]
Summary of the method: as §1

gandotinib = compound: Cc1cc(Nc2cc(CN3CCOCC3)c3nc(C)c(Cc4ccc(Cl)cc4F)n3n2)n[nH]1 [gandotinib]
Summary of the method: as §1

tozasertib = compound: Cc1cc(Nc2cc(N3CCN(C)CC3)nc(Sc3ccc(NC(=O)C4CC4)cc3)n2)n[nH]1 [tozasertib]
Summary of the method: as §1

doramapimod = compound: Cc1ccc(-n2nc(C(C)(C)C)cc2NC(=O)Nc2ccc(OCCN3CCOCC3)c3ccccc23)cc1 [doramapimod]
Summary of the method: as §1

bafetinib = compound: Cc1ccc(NC(=O)c2ccc(CN3CC[C@H](N(C)C)C3)c(C(F)(F)F)c2)cc1Nc1nccc(-c2cncnc2)n1 [bafetinib]
Summary of the method: as §1

[6] = compound: Cc1cccc(CC(=O)N2CCc3c2ccc(-c2cn(C)c4ncnc(N)c24)c3F)n1
Summary of the method: as §1

Measured: log2 fold change

UBE2K (UniProt P61086)
inactive: alvocidib -0.03 | Tubastatin A 0.041 | [1] 0.013 | defactinib -0.008 | [2] 0.037 | encorafenib -0.024 | [3] -0.029 | alisertib -0.012 | [4] 0.004 | gefitinib -0.048 | lapatinib 0.019 | pictilisib -0.015 | crizotinib -0.013 | [5] -0.008 | duvelisib -0.006 | gandotinib 0.005 | tozasertib -0.006 | doramapimod -0.01 | bafetinib 0.039 | [6] -0.016

UBE2V2 (UniProt Q15819)
inactive: alvocidib 0.015 | Tubastatin A 0.061 | [1] 0.013 | defactinib 0.024 | [2] -0.016 | encorafenib -0.015 | [3] -0.029 | alisertib 0.017 | [4] -0.001 | gefitinib 0.037 | lapatinib 0.02 | pictilisib 0.02 | crizotinib 0.032 | [5] 0.006 | duvelisib -0.026 | gandotinib -0.006 | tozasertib 0.005 | doramapimod -0.003 | bafetinib -0.006 | [6] -0.016

UBQLN4 (UniProt Q9NRR5)
inactive: alvocidib 0.026 | Tubastatin A 0.027 | [1] -0.002 | defactinib 0.042 | [2] 0.036 | encorafenib 0.007 | [3] -0.057 | alisertib -0.03 | [4] -0.028 | gefitinib -0.017 | lapatinib 0.043 | pictilisib -0.054 | crizotinib -0.029 | [5] 0.035 | duvelisib 0.001 | gandotinib -0.02 | tozasertib 0.026 | doramapimod -0.073 | bafetinib -0.02 | [6] -0.028

UBXN7 (UniProt O94888)
inactive: alvocidib -0.006 | Tubastatin A 0.006 | [1] 0.021 | defactinib 0.001 | [2] 0 | encorafenib 0.014 | [3] -0.105 | alisertib -0.016 | [4] 0.007 | gefitinib -0.017 | lapatinib -0.008 | pictilisib 0 | crizotinib -0.003 | [5] -0.043 | duvelisib 0.005 | gandotinib 0.076 | tozasertib 0.024 | doramapimod 0.001 | bafetinib 0.002 | [6] 0.02

UBAP2 (UniProt Q5T6F2)
inactive: alvocidib -0.081 | Tubastatin A 0.026 | [1] -0.026 | defactinib -0.003 | [2] 0.005 | encorafenib 0.033 | [3] -0.021 | alisertib 0.005 | [4] 0.011 | gefitinib 0.014 | lapatinib -0.04 | pictilisib -0.079 | crizotinib 0.091 | [5] -0.173 | duvelisib -0.003 | gandotinib 0.095 | tozasertib -0.02 | doramapimod -0.097 | bafetinib -0.066 | [6] 0.061

TUBA4A (UniProt P68366)
inactive: alvocidib 0.003 | Tubastatin A -0.068 | [1] 0.049 | defactinib 0.014 | [2] -0.001 | encorafenib -0.039 | [3] 0.125 | alisertib 0.027 | [4] 0.032 | gefitinib 0.007 | lapatinib -0.02 | pictilisib 0.012 | crizotinib -0.048 | [5] -0.066 | duvelisib 0.034 | gandotinib 0.121 | tozasertib 0.011 | doramapimod 0.045 | bafetinib -0.028 | [6] 0.035

UBE2D3 isoform 3 (UniProt P61077)
inactive: alvocidib -0.016 | Tubastatin A 0.056 | [1] -0.032 | defactinib 0.004 | [2] 0.025 | encorafenib 0.017 | [3] -0.067 | alisertib 0.016 | [4] 0.007 | gefitinib -0.069 | lapatinib -0.001 | pictilisib 0.034 | crizotinib -0.038 | [5] -0.067 | duvelisib -0.025 | gandotinib 0.019 | tozasertib 0.002 | doramapimod -0.007 | bafetinib -0.009 | [6] 0.014

UBE2G1 (UniProt P62253)
inactive: alvocidib 0.036 | Tubastatin A 0.008 | [1] -0.028 | defactinib -0.04 | [2] 0.005 | encorafenib -0.015 | [3] -0.03 | alisertib -0.025 | [4] -0.004 | gefitinib -0.047 | lapatinib -0.019 | pictilisib -0.016 | crizotinib 0.057 | [5] 0.009 | duvelisib 0.008 | gandotinib 0.038 | tozasertib -0.052 | doramapimod -0.012 | bafetinib -0.021 | [6] -0.012

UBE4B isoform 4 (UniProt O95155)
inactive: alvocidib 0.004 | Tubastatin A -0.006 | [1] 0.003 | defactinib 0.017 | [2] -0.035 | encorafenib 0.028 | [3] -0.037 | alisertib -0.011 | [4] -0.001 | gefitinib 0 | lapatinib -0.019 | pictilisib -0.009 | crizotinib -0.023 | [5] -0.029 | duvelisib 0.012 | gandotinib 0.003 | tozasertib 0.014 | doramapimod 0.001 | bafetinib -0.029 | [6] 0.009

UBE2Z (UniProt Q9H832)
inactive: alvocidib -0.018 | Tubastatin A -0.036 | [1] 0.039 | defactinib -0.01 | [2] -0.062 | encorafenib 0.024 | [3] 0.009 | alisertib 0.026 | [4] 0.021 | gefitinib -0.021 | lapatinib 0.027 | pictilisib -0.037 | crizotinib 0.003 | [5] -0.104 | duvelisib -0.032 | gandotinib 0.028 | tozasertib -0.017 | doramapimod -0.002 | bafetinib -0.032 | [6] 0.039

UBR1 (UniProt Q8IWV7)
inactive: alvocidib -0.018 | Tubastatin A -0.026 | [1] 0.009 | defactinib 0.001 | [2] -0.03 | encorafenib 0.033 | [3] 0.055 | alisertib 0.003 | [4] -0.007 | gefitinib 0.016 | lapatinib -0.018 | pictilisib -0.035 | crizotinib -0.082 | [5] -0.046 | duvelisib 0.01 | gandotinib -0.081 | tozasertib 0 | doramapimod 0.039 | bafetinib -0.065 | [6] 0.032

TXNL4B (UniProt Q9NX01)
inactive: alvocidib 0.03 | Tubastatin A 0.067 | [1] -0.049 | defactinib 0.005 | [2] -0.033 | encorafenib 0.074 | [3] 0.017 | alisertib 0 | [4] -0.056 | gefitinib 0.31 | lapatinib -0.109 | pictilisib 0.182 | crizotinib 0.039 | [5] -0.156 | duvelisib 0.031 | gandotinib -0.023 | tozasertib 0.248 | doramapimod 0.093 | bafetinib -0.152 | [6] 0.376

Taken from the entries so far (2 entries):
UBXN7 (UniProt O94888)
inactive: alvocidib -0.006 | Tubastatin A 0.006 | [1] 0.021 | defactinib 0.001 | [2] 0 | encorafenib 0.014 | [3] -0.105 | alisertib -0.016 | [4] 0.007 | gefitinib -0.017 | lapatinib -0.008 | pictilisib 0 | crizotinib -0.003 | [5] -0.043 | duvelisib 0.005 | gandotinib 0.076 | tozasertib 0.024 | doramapimod 0.001 | bafetinib 0.002 | [6] 0.02

UBAP2 (UniProt Q5T6F2)
inactive: alvocidib -0.081 | Tubastatin A 0.026 | [1] -0.026 | defactinib -0.003 | [2] 0.005 | encorafenib 0.033 | [3] -0.021 | alisertib 0.005 | [4] 0.011 | gefitinib 0.014 | lapatinib -0.04 | pictilisib -0.079 | crizotinib 0.091 | [5] -0.173 | duvelisib -0.003 | gandotinib 0.095 | tozasertib -0.02 | doramapimod -0.097 | bafetinib -0.066 | [6] 0.061

(next part)

UBE2I (UniProt P63279)
inactive: alvocidib 0.014 | Tubastatin A 0.054 | [1] -0.003 | defactinib -0.005 | [2] 0.053 | encorafenib -0.032 | [3] -0.034 | alisertib 0.04 | [4] 0.005 | gefitinib -0.062 | lapatinib 0.018 | pictilisib -0.022 | crizotinib -0.009 | [5] -0.061 | duvelisib -0.019 | gandotinib 0.015 | tozasertib -0.038 | doramapimod 0.014 | bafetinib -0.035 | [6] 0.001

TUBD1 (UniProt Q9UJT1)
inactive: alvocidib -0.029 | Tubastatin A -0.051 | [1] 0.072 | defactinib -0.038 | [2] -0.056 | encorafenib 0.018 | [3] 0.062 | alisertib 0.011 | [4] -0.113 | gefitinib 0.069 | lapatinib 0.007 | pictilisib 0.051 | crizotinib 0.092 | [5] -0.015 | duvelisib 0.111 | gandotinib 0.032 | tozasertib -0.02 | doramapimod 0 | bafetinib 0.315 | [6] -0.031

UBL7 (UniProt Q96S82)
inactive: alvocidib -0.009 | Tubastatin A 0.077 | [1] -0.039 | defactinib 0.078 | [2] -0.026 | encorafenib 0.03 | [3] -0.033 | alisertib 0.04 | [4] -0.02 | gefitinib -0.052 | lapatinib 0.015 | pictilisib -0.016 | crizotinib 0 | [5] 0.013 | duvelisib -0.02 | gandotinib -0.045 | tozasertib 0.023 | doramapimod -0.021 | bafetinib -0.035 | [6] -0.015

TXNDC5 (UniProt Q8NBS9)
inactive: alvocidib 0.029 | Tubastatin A 0.052 | [1] -0.003 | defactinib -0.035 | [2] 0.022 | encorafenib -0.035 | [3] -0.014 | alisertib -0.001 | [4] 0 | gefitinib -0.002 | lapatinib -0.02 | pictilisib 0 | crizotinib 0.026 | [5] 0.005 | duvelisib 0.016 | gandotinib 0.034 | tozasertib 0.012 | doramapimod -0.004 | bafetinib 0.055 | [6] -0.021
